Experimental data reported in article doi:10.1101/2024.11.26.625523.
These are yes or no findings as the source states them, for the method shown. Binding seen in cells or lysates may run through a third protein. Some binding calls cover weakened binding; strength is not graded here.

By UniProt entry, the sequences of proteins in these tests, tags left out.
UniProt O43707: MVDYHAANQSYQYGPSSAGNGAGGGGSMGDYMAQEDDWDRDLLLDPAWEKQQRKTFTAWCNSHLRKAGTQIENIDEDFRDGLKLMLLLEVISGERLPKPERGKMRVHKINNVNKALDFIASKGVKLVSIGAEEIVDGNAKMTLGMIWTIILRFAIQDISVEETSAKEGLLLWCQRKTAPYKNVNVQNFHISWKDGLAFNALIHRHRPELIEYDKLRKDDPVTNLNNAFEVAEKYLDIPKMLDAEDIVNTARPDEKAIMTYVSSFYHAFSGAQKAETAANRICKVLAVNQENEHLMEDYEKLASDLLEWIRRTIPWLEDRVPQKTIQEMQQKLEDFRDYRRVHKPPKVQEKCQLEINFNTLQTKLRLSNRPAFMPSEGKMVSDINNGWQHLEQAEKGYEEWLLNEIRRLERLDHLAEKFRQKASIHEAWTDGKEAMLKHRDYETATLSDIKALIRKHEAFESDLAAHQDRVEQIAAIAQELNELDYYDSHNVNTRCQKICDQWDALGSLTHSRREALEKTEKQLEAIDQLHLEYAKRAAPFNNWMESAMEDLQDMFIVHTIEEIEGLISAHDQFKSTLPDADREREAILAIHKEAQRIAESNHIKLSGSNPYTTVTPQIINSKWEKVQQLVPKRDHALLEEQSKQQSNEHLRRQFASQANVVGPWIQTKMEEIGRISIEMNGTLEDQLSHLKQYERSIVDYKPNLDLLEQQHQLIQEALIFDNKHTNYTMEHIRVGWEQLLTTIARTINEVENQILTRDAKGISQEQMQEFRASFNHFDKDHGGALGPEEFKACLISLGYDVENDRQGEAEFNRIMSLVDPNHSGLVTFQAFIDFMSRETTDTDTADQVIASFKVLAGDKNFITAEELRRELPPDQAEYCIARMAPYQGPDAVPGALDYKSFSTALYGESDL
UniProt P35609: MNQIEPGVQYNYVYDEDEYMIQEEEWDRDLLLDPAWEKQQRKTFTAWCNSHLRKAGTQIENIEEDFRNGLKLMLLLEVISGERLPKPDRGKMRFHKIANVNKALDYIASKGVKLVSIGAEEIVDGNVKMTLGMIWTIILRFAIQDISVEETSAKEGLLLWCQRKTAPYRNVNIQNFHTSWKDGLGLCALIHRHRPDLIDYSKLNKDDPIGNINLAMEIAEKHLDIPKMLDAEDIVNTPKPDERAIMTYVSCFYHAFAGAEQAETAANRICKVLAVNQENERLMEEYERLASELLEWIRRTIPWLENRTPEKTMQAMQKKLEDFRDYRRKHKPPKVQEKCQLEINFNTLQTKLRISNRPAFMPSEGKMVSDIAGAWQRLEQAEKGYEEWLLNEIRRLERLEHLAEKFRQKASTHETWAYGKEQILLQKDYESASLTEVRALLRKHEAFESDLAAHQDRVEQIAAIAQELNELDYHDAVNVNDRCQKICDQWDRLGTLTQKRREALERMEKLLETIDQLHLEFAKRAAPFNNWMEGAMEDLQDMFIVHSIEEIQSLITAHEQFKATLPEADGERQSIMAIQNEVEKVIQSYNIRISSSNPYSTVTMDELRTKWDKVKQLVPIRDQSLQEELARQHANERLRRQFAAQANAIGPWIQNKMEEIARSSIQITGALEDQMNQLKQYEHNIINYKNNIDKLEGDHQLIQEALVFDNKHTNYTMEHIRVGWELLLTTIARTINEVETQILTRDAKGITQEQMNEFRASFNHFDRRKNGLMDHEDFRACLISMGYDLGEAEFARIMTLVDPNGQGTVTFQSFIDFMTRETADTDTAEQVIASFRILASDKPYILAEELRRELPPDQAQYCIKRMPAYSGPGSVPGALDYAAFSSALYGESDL

Molecular target: ACTN4-mEGFP (alpha-actinin 4-mEGFP fusion) (human) (UniProt O43707)
Test: co-IP

With “endogenous ACTN2 (α-actinin 2) (from UniProt P35609 1-894)” the binding was “binds”.
